Where a name gives a salt, the structure may show the parent alone. This is one part of the list. This data set is noisy: repeats of one test often differ as much as different tests do.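 JEG3 cells stably carry tetracycline-induced wild-type human LRH-1, a heavily sumoylated nuclear receptor. APOC3 and MUC1 are SUMO-sensitive transcripts, raised by SUMO-less LRH-1 or UBC9 knockdown, measured by RT-qPCR against TBP and DMSO controls. A robust Z-score above +2 or below -2 marked a primary hit before toxicity and TBP filtering.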
test system: JEG3 expressing hLRH-1; test: APOC3 transcript change (ddCt vs TBP and DMSO), Z-score over library; higher = higher APOC3 expression; conditions: 10 µM; time (hr): 24

Row | SMILES | APOC3 transcript change (Z-score)
1 | CC(CNCCc1ccc(O)c(O)c1)Cc1cccc(O)c1 (stereo not drawn) [dobutamine hydrochloride] | 0.509
2 | CC1(C)S[C@@H]2[C@H](NC(=O)[C@H](N)c3ccc(O)cc3)C(=O)N2[C@H]1C(=O)O [amoxicillin] | 0.0889
3 | COc1cc(O)cc(C(=O)c2ccccc2)c1S(=O)(=O)O [sulisobenzone] | 0.207
4 | COc1cccc2c1C(=O)c1c(O)c3c(c(O)c1C2=O)C[C@@](O)(C(=O)CO)C[C@@H]3O[C@H]1C[C@H](N)[C@H](O)[C@H](C)O1 [doxorubicin] | 3.49
5 | CCOc1ccccc1C(N)=O [ethenzamide] | -0.513
6 | Nc1nc(/C(=C/CC(=O)O)C(=O)N[C@@H]2C(=O)N3C(C(=O)O)=CCS[C@H]23)cs1 [ceftibuten] | 0.283
7 | CC1(C)S[C@@H]2[C@H](NC(=O)[C@H](NC(=O)N3CCNC3=O)c3ccccc3)C(=O)N2[C@H]1C(=O)O [azlocillin sodium] | -0.0919
8 | CCCCCCCCCc1ccc(OCCOCCOCCOCCOCCOCCOCCOCCOCCO)cc1 [nonoxynol-9] | -0.48
9 | O=C(O)c1cn(C2CC2)c2cc(N3CCNCC3)c(F)cc2c1=O [ciprofloxacin] | -0.515
10 | CN/C(=C\[N+](=O)[O-])NCCSCc1ccc(CN(C)C)o1 [Ranitidine hydrochloride] | -0.196
11 | CC(NCCC(c1ccccc1)c1ccccc1)c1ccccc1 (stereo not drawn) [fendiline hydrochloride] | -4.11
12 | C[N+](C)(C)CCCCCC[N+](C)(C)C [Hexamethonium dichloride] | -1.59
13 | NC(N)=NCCCC(N)C(=O)O (stereo not drawn) [arginine hydrochloride] | -0.13
14 | CN1C(C)(C)CCCC1(C)C [pempidine tartrate] | -0.0976
15 | CN1CCN(C2=Nc3ccccc3Oc3ccc(Cl)cc32)CC1 [Loxapine succinate] | 0.198
16 | CN1CCC[C@@H]1CCO[C@](C)(c1ccccc1)c1ccc(Cl)cc1 [clemastine] | 0.717
17 | COc1ccc(C2Sc3ccccc3N(CCN(C)C)C(=O)C2OC(C)=O)cc1 (stereo not drawn) [diltiazem hydrochloride] | 0.853
18 | CC(=O)Nc1ccccc1 [acetanilide] | -0.361
19 | COc1ccc(CN2CCN(C(c3ccc(F)cc3)c3ccc(F)cc3)CC2)c(OC)c1OC [lomerizine hydrochloride] | -1.96
20 | C#C[C@]1(O)CCC2C3CCc4cc(O)ccc4C3CC[C@@]21C (stereo partly drawn) [ethinyl estradiol] | 1.3
21 | O=C1CC[C@@H](C(=O)O)N1 [pidolic acid] | 0.645
22 | CC1(C)[C@@H]2CC[C@@]1(C)C(=O)C2 [camphor (1r)] | -0.139
23 | O=c1[nH]c(=O)n(C2C[C@@H](O)[C@@H](CO)O2)cc1F (stereo partly drawn) [floxuridine] | 0.891

2 of these compounds in another layout.
Row	SMILES	APOC3 transcript change (Z-score)
7	CC1(C)S[C@@H]2[C@H](NC(=O)[C@H](NC(=O)N3CCNC3=O)c3ccccc3)C(=O)N2[C@H]1C(=O)O [azlocillin sodium]	-0.0919
12	C[N+](C)(C)CCCCCC[N+](C)(C)C [Hexamethonium dichloride]	-1.59
